Test results reported in patent US5436128A, “Assay methods and compositions for detecting and evaluating the intracellular transduction of an extracellular signal” (Salk Institute Biotechnology/Industrial Associates, priority 1993, dated 1995).
Values joined by “and” are separate entries in the source; they are usually repeats but may differ in a detail not shown here. Equal values may be shown once. For at least one compound, name, drawing or mass did not settle the structure.

Tests used:
Ltk- cells = assay: c-fos mRNA induction (northern analysis), untransfected or TK-transfected Ltk- control cells; assay type: cell-based, mouse; settings: 100 μM carbachol
COS-7 cells = assay: Luciferase induction, COS-7 control cells transfected with pFC4XP1 without HM1; assay type: cell-based, African Green Monkey; settings: pFC4XP1, pCH110 (no HM1), +CCh

For `C[N+](C)(C)CCOC(N)=O` [carbamylcholine], the “c-fos mRNA Induction” value (Ltk- cells) was “-”, the “Average Luciferase (normalized, duplicates)” value (COS-7 cells) was 1,065,428 RLU and the “Normalized Luciferase Activity” value (COS-7 cells) was 1,086,192 RLU. For the same compound, the “Luciferase Activity” value (COS-7 cells; listed as CCh) was 201,382 RLU and 299,789 RLU.
